Source: patent publication US20260258004A1, “CRYSTALLINE FORMS OF (6S)-5-[4'-FLUORO-2-(TRIFLUOROMETHYL)BIPHENYL-4-YL]-6-METHYL-3,6- DIHYDRO-2H-l,3,4-OXADIAZIN-2-ONE” (Bayer Aktiengesellschaft, priority 2022, published 2026)
This continues a long series; more values of the same kind are listed elsewhere.

Assay: Particle size distribution by laser diffraction (Malvern Panalytical Mastersizer 3000, Fraunhofer)
Format: physicochemical
Procedure: The particle size distribution was measured by laser diffraction using the Malvern Panalytical Mastersizer 3000.
The samples are again taken from example 1.6 (probe 1) and example 1.5 (probe 2), the same as used in example 4.
The sample to be analyzed is dispersed in 1 drop of Tween 80 the sample is processed according to ISO13320.
Laser diffraction is an often-used method for determination the particle size of dispersed solid materials. A widened laser beam illuminates a cuvette which contains part of the particles. By diffraction on the particles a characteristic pattern can be mapped on the detector. The resulting diffraction image is the additive overlaying of diffraction images of all particles.
Besides the mentioned detector two additional detectors are mounted in order to detect diffraction light in forward direction (FA1,9), in wide angle (LA1,2) and in back direction (BS1,2). The turbidity of the sample is measured by an extinction sensor. This is necessary to ensure a low particle concentration which is necessary to avoid wrong results by multiple diffraction of light at several particles.
The cuvette used was a wet unit where the suspension is pumped in a closed circuit with a dispersing unit that ensures a separation of single particles by shear forces.
The measurement range of the Malvern 3000 covers a particle size from 1 mm (2 mm) down to 20 nm
The calculation of the particle size distribution from the diffraction patterns was done on basis of theory of Fraunhofer.
This assumption is valid for particle sizes of 10 to 50 μm and above. For smaller particles the light scattering of the particle itself due to optical transparency must be considered which is done in the Mie-theory (not used for our probes). Precondition of the application of the Mie-theory is the knowledge of the refractive and absorption index of the dispersed solids.
Q3 is the cumulative volume distribution, e.g. D50=Q(50%) indicates 50% of the volume part of the sample is smaller than particle size of 50 μm.
The particle size is expressed as an equivalent diameter used in the method recommended by the Malvern Analysis Program and as described in ISO13320.

Cumulative volume distribution Q (particle size D 5.92 μm, 300 s US, listed as Porbe2): 4.05%
Cumulative volume distribution Q (particle size D 5.92 μm, without US, listed as Probe 2): 0%
Cumulative volume distribution Q (particle size D 6.72 μm, 300 s US, listed as Porbe2): 4.6%
Cumulative volume distribution Q (particle size D 6.72 μm, without US, listed as Probe 2): 0.06%
Cumulative volume distribution Q (particle size D 7.64 μm, 300 s US, listed as Porbe2): 5.22%
Cumulative volume distribution Q (particle size D 7.64 μm, without US, listed as Probe 2): 0.13%
Cumulative volume distribution Q (particle size D 8.68 μm, 300 s US, listed as Porbe2): 5.91%
Cumulative volume distribution Q (particle size D 8.68 μm, without US, listed as Probe 2): 0.2%
Cumulative volume distribution Q (particle size D 9.86 μm, 300 s US, listed as Porbe2): 6.7%
Cumulative volume distribution Q (particle size D 9.86 μm, without US, listed as Probe 2): 0.27%
Cumulative volume distribution Q (particle size D 11.2 μm, 300 s US, listed as Porbe2): 7.61%
Cumulative volume distribution Q (particle size D 11.2 μm, without US, listed as Probe 2): 0.35%
Cumulative volume distribution Q (particle size D 12.7 μm, 300 s US, listed as Porbe2): 8.67%
Cumulative volume distribution Q (particle size D 12.7 μm, without US, listed as Probe 2): 0.43%
Cumulative volume distribution Q (particle size D 14.5 μm, 300 s US, listed as Porbe2): 9.93%
Cumulative volume distribution Q (particle size D 14.5 μm, without US, listed as Probe 2): 0.52%
Cumulative volume distribution Q (particle size D 16.4 μm, 300 s US, listed as Porbe2): 11.44%
Cumulative volume distribution Q (particle size D 16.4 μm, without US, listed as Probe 2): 0.66%
Cumulative volume distribution Q (particle size D 18.7 μm, 300 s US, listed as Porbe2): 13.29%
Cumulative volume distribution Q (particle size D 18.7 μm, without US, listed as Probe 2): 0.85%
Cumulative volume distribution Q (particle size D 21.2 μm, 300 s US, listed as Porbe2): 15.54%
Cumulative volume distribution Q (particle size D 21.2 μm, without US, listed as Probe 2): 1.12%
Cumulative volume distribution Q (particle size D 24.1 μm, 300 s US, listed as Porbe2): 18.26%
Cumulative volume distribution Q (particle size D 24.1 μm, without US, listed as Probe 2): 1.51%
Cumulative volume distribution Q (particle size D 27.4 μm, 300 s US, listed as Porbe2): 21.51%
Cumulative volume distribution Q (particle size D 27.4 μm, without US, listed as Probe 2): 2.02%
Cumulative volume distribution Q (particle size D 31.1 μm, 300 s US, listed as Porbe2): 25.33%
Cumulative volume distribution Q (particle size D 31.1 μm, without US, listed as Probe 2): 2.66%
Cumulative volume distribution Q (particle size D 35.3 μm, 300 s US, listed as Porbe2): 29.7%
Cumulative volume distribution Q (particle size D 35.3 μm, without US, listed as Probe 2): 3.42%
Cumulative volume distribution Q (particle size D 40.1 μm, 300 s US, listed as Porbe2): 34.58%
Cumulative volume distribution Q (particle size D 40.1 μm, without US, listed as Probe 2): 4.3%
Cumulative volume distribution Q (particle size D 45.6 μm, 300 s US, listed as Porbe2): 39.87%
Cumulative volume distribution Q (particle size D 45.6 μm, without US, listed as Probe 2): 5.3%
Cumulative volume distribution Q (particle size D 51.8 μm, 300 s US, listed as Porbe2): 45.48%
Cumulative volume distribution Q (particle size D 51.8 μm, without US, listed as Probe 2): 6.44%
Cumulative volume distribution Q (particle size D 58.9 μm, 300 s US, listed as Porbe2): 51.26%
Cumulative volume distribution Q (particle size D 58.9 μm, without US, listed as Probe 2): 7.78%
Cumulative volume distribution Q (particle size D 66.9 μm, 300 s US, listed as Porbe2): 57.08%
Cumulative volume distribution Q (particle size D 66.9 μm, without US, listed as Probe 2): 9.44%
Cumulative volume distribution Q (particle size D 76 μm, 300 s US, listed as Porbe2): 62.81%
Cumulative volume distribution Q (particle size D 76 μm, without US, listed as Probe 2): 11.6%
Cumulative volume distribution Q (particle size D 86.4 μm, 300 s US, listed as Porbe2): 68.33%
Cumulative volume distribution Q (particle size D 86.4 μm, without US, listed as Probe 2): 14.47%
Cumulative volume distribution Q (particle size D 98.1 μm, 300 s US, listed as Porbe2): 73.52%
Cumulative volume distribution Q (particle size D 98.1 μm, without US, listed as Probe 2): 18.26%
Cumulative volume distribution Q (particle size D 111 μm, 300 s US, listed as Porbe2): 78.28%
Cumulative volume distribution Q (particle size D 111 μm, without US, listed as Probe 2): 23.13%
Cumulative volume distribution Q (particle size D 127 μm, 300 s US, listed as Porbe2): 82.52%
Cumulative volume distribution Q (particle size D 127 μm, without US, listed as Probe 2): 29.12%
Cumulative volume distribution Q (particle size D 144 μm, 300 s US, listed as Porbe2): 86.16%
Cumulative volume distribution Q (particle size D 144 μm, without US, listed as Probe 2): 36.15%
Cumulative volume distribution Q (particle size D 163 μm, 300 s US, listed as Porbe2): 89.2%
Cumulative volume distribution Q (particle size D 163 μm, without US, listed as Probe 2): 43.99%
Cumulative volume distribution Q (particle size D 186 μm, 300 s US, listed as Porbe2): 91.66%
Cumulative volume distribution Q (particle size D 186 μm, without US, listed as Probe 2): 52.3%
Cumulative volume distribution Q (particle size D 211 μm, 300 s US, listed as Porbe2): 93.62%
Cumulative volume distribution Q (particle size D 211 μm, without US, listed as Probe 2): 60.66%
Cumulative volume distribution Q (particle size D 240 μm, 300 s US, listed as Porbe2): 95.18%
Cumulative volume distribution Q (particle size D 240 μm, without US, listed as Probe 2): 68.67%
Cumulative volume distribution Q (particle size D 272 μm, 300 s US, listed as Porbe2): 96.46%
Cumulative volume distribution Q (particle size D 272 μm, without US, listed as Probe 2): 75.96%
Cumulative volume distribution Q (particle size D 310 μm, 300 s US, listed as Porbe2): 97.5%
Cumulative volume distribution Q (particle size D 310 μm, without US, listed as Probe 2): 82.27%
Cumulative volume distribution Q (particle size D 352 μm, 300 s US, listed as Porbe2): 98.37%
Cumulative volume distribution Q (particle size D 352 μm, without US, listed as Probe 2): 87.49%
Cumulative volume distribution Q (particle size D 400 μm, 300 s US, listed as Porbe2): 99.05%
Cumulative volume distribution Q (particle size D 400 μm, without US, listed as Probe 2): 91.58%
Cumulative volume distribution Q (particle size D 454 μm, 300 s US, listed as Porbe2): 99.55%
Cumulative volume distribution Q (particle size D 454 μm, without US, listed as Probe 2): 94.65%
Cumulative volume distribution Q (particle size D 516 μm, 300 s US, listed as Porbe2): 99.86%
Cumulative volume distribution Q (particle size D 516 μm, without US, listed as Probe 2): 96.82%
Cumulative volume distribution Q (particle size D 586 μm, 300 s US): 100%
Cumulative volume distribution Q (particle size D 586 μm, without US, listed as Probe 2): 98.26%
Cumulative volume distribution Q (particle size D 666 μm, 300 s US): 100%
Cumulative volume distribution Q (particle size D 666 μm, without US, listed as Probe 2): 99.16%
SMILES: C[C@@H]1OC(=O)NN=C1c1ccc(-c2ccc(F)cc2)c(C(F)(F)F)c1 [polymorph C, (6S)-5-[4′-Fluoro-2-(trifluoromethyl)biphenyl-4-yl]-6-methyl-3,6-dihydro-2H-1,3,4-oxadiazin-2-one]
